Z-score data for 109 compounds are collected here from PubChem BioAssay AID463116 (University of Pittsburgh Molecular Library Screening Center, 2010).

This is one part of the list. The main result of the screen is listed elsewhere. These columns were measured beside it and carry no call. Compounds called inactive in the main read-out are mostly missing here.

A short description of this test: dynein cargo transport inhibitors, GR-EGFP translocation, confirmation, imaging, high-content imaging, GR-EGFP cells (AID 463116). The following applies: 3617.4 GR-EGFP nuclear translocation imaging, dexamethasone-induced; measured here: cell count per field; at 20 µM.
Regarding `O=C1ON=C(c2ccc(Cl)cc2)/C1=C/c1ccc(O)cc1`, the z-score was -1.16.
As for `O=C(NC1CCCC1)C(c1ccc(Cl)cc1)N(Cc1ccc(F)cc1)C(=O)CCl` (centres undefined), the figure is 0.14; as for `COc1ccc(/C=c2\s/c(=C/C(=O)c3ccc(C)cc3)[nH]c2=O)cc1OC`, 0.302.
The compound `CC(=O)C(Cl)C(=O)Nc1ccccc1` (centres undefined) registered a z-score of 0.0532.
As for `N#Cc1ccc(-c2cccnc2)nc1SCC(=O)c1ccccc1`, the figure is -0.472; as for `CC(C)CC(=O)/C=C/n1c(=S)oc2ccccc21`, -0.302.
As for `CCC(C)(C)C1CCc2[nH]nc(C(=O)N/N=C(\C)c3ccco3)c2C1` (centres undefined), the figure is -0.642; as for `COc1ccc(NC(=O)c2oc3cc(C)c(C)cc3c2C)c(OC)c1`, 0.308.
The same measure for `CC(=O)c1ccc(Sc2nnnn2-c2ccccc2)c([N+](=O)[O-])c1`: 0.114.
Turning to `c1ccc(-c2ccc(-c3nccc4ccccc34)[nH]2)cc1`, the z-score amounted to 0.0141.
Take `CCN(CC)c1ccc(/C=C/C(=O)c2ccc(Br)cc2)cc1`: the z-score was -0.263.
As for `CCOC(=O)c1c2ccc(OCC(=O)N/N=C/c3ccc(Cl)cc3)cc2n2ccccc12`, the figure is 0.498.
On to `CC(C(Sc1ccccc1N)c1ccccc1)[N+](=O)[O-]` (centres undefined), for which the z-score is 0.383.
The same measure for `Cc1ccc(-n2nnnc2C(Cl)(Cl)c2nnnn2-c2ccc(C)cc2)cc1`: 0.693; for `N#C/C(=C/c1ccc(N2CCOCC2)o1)c1ccc(Cl)cc1`: -0.269.
As for `Cc1ccc(N(C(=O)CCl)C(C(=O)NC2CCCCC2)c2cccnc2)cc1C` (centres undefined), the figure is 0.533; as for `COc1ccc(CN(C)C(=O)CCl)cc1`, 0.629.
As for `Nc1ccc(N2CCCCCC2)cc1`, the figure is -1.13.
With `N#Cc1cccc(N=c2ssnc2Cl)c1`, the z-score was found to be 0.209.
As for `COc1ccc(NC(=O)C(Cl)=C(Cl)Cl)cn1`, the figure is -0.605.
The same measure for `COc1ccc(N/C=C/c2nc(SC)nnc2C)cc1`: -0.722; for `CCOC(=O)C(=Cc1ccc(-n2ccnc2)cc1)C(=O)OCC`: -0.35.
Regarding `O=[N+]([O-])c1ccc(Sc2nnnn2-c2ccccc2)nc1`, the z-score turned out to be 0.37.
The same measure for `COCCCn1c(O)c(/C=C2\N=C(C#N)C(=Nc3ccc(C)cc3)O2)sc1=S`: 0.475; for `Cc1cc(Cl)n2c(nc3ccccc32)c1C#N`: -0.146.
The same measure for `Cc1ccc2nc(Cl)c3cc(C(=O)N(CCN(C)C)Cc4ccco4)sc3c2c1`: -3.86.
`Nc1c(C(=O)c2ccccc2)sc2nsc(SCCN3CCCC3)c12` had a z-score of -0.367.
The same measure for `CCOC(=O)COc1ccc2ccccc2c1/C=C/[N+](=O)[O-]`: -2.88; for `Cc1cc(Oc2ccc(-c3ccccc3)cc2)n2ncnc2n1`: 0.251; for `COc1cc(/C=C/[N+](=O)[O-])ccc1OCc1cccc(C(=O)O)c1`: -0.353.
The same measure for `CCOC(=O)CS(=O)(=O)c1nc(-c2ccc(F)cc2)cc(C(F)(F)F)n1`: -1.09; for `C=CCn1c(Sc2ncc([N+](=O)[O-])s2)n[nH]c1=O`: -0.113.
The same measure for `COc1ccc([N+](=O)[O-])c(S(=O)(=O)c2ccccc2)n1`: -0.996.
For `COc1ccc(-c2cccc([C@H]3[C@@H]4C=CCC[C@@]4(C)C(=O)N3Cc3ccccc3)c2)cc1`, the z-score came out at 0.123.
As for `CCCCn1c(CCC)nc([N+](=O)[O-])c1Sc1ccc(Cl)cn1`, the figure is 0.503; as for `Cc1c(N=C2C=CC(=O)c3ccccc32)c(=O)n(-c2ccccc2)n1C`, -0.176; as for `Cc1cc(C(=O)CCl)c(C)n1-c1ccon1`, 0.778.
The same measure for `O=C(OCn1ncc(Br)c(Br)c1=O)c1ccc(F)cc1`: 0.531; for `Cn1cc(Br)c(NC(=O)/C=C/C(=O)O)n1`: 0.395; for `CCCC(=O)N1CCN(c2ccc(NC(=O)c3ccc([N+](=O)[O-])o3)cc2Cl)CC1`: 0.517.
`O=C1N=C2N(CCN3CCCCC3)c3ccccc3N2/C1=C\c1ccc([N+](=O)[O-])o1` yielded a z-score of 0.0331.
In turn, `COc1ccccc1NS(=O)(=O)c1cc([N+](=O)[O-])ccc1N/N=C/c1sc(N2CCOCC2)nc1-c1ccccc1` returned a z-score of -1.13.
The same measure for `CCOc1ccc(N2C(=O)CC(Sc3n[nH]c(-c4ccccc4)n3)C2=O)cc1` (centres undefined): 0.119.
For `Cc1cc(NC(=O)c2coc(=O)c(Br)c2)ccc1C(C)C`, the z-score was -0.291.
The same measure for `CCOC(=O)C1=C(O)c2ccccc2C(=O)/C1=C\c1ccc(CC)cc1`: -4.55; for `COC(=O)CS(=O)(=O)c1nnc([C@H](Cc2ccccc2)NC(=O)OC(C)(C)C)o1`: 0.314; for `CCN1CCN(c2ccc(NC(=O)c3ccc([N+](=O)[O-])o3)cc2Cl)CC1`: 0.309.
Take `Cn1c(=O)oc2cc(S(=O)(=O)Nc3ccc4c(c3)OCCO4)ccc21`: the z-score is 0.262.
For the compound `Cc1ccc(Sc2ccc(NC(=O)CCl)cc2)cc1C`, the z-score was -0.0367.
Turning to `COc1ccc(/C=C/C(=O)c2cc(F)ccc2OC(=O)c2ccccc2OC)cc1OC`, the z-score is -0.424.
For the compound `CCN(CC)c1ccc(N=Cc2ccc([N+](=O)[O-])o2)cc1`, the z-score amounted to 0.316.
Turning to `O=C(CN1CCCc2ccccc21)NC(=O)NC1CCCCC1`, the z-score is -0.197.
`O=c1c(Cl)c(Cl)cnn1Cc1ccc(F)cc1` showed a z-score of -0.572.
For the compound `COC(=O)C(=C/C(C)=C/c1cccs1)C(=O)OC`, the z-score came out at 0.436.
`Oc1c(Cl)cc(Cl)c2c1NCCC2` showed a z-score of 0.144.
Take `C/C(CCc1oc2c(Br)cc(Br)cc2c1-c1ccc(C)o1)=N\O`: the z-score worked out at 0.0863.
In the case of `CC1CCN(CC(CS(=O)(=O)c2ccc([N+](=O)[O-])cc2)N2CCC(C)CC2)CC1` (centres undefined), the z-score is -0.618.
As for `ClC1=C(Cl)C(Cl)=C(Cl)C1=C/C=C/c1ccccc1`, the z-score is -0.17.
The compound `O=c1oc(-c2ccco2)nc2ccccc12` displayed a z-score of 0.76.
As for `N#CCCN(C(=O)CCl)c1cccc(Cl)c1`, the figure is 0.818.
For `Cc1[nH]c2ccccc2c1/C=N/Nc1ccc([N+](=O)[O-])cc1`, the z-score is 0.212.
The same measure for `Cc1cccc(NC(=O)CCC(=O)OCC(=O)c2ccc(Oc3ccc([N+](=O)[O-])cc3)cc2)c1`: 0.246; for `O=C(CC1Sc2ncnn2C1=O)Nc1ccc(Cl)cc1` (centres undefined): 0.341.
As for `Cn1ccnc1Sc1cc(NCCCO)c([N+](=O)[O-])c2nonc12`, the figure is -0.104; as for `CS(=O)(=O)c1nc(-c2ccc(F)cc2)cc(C(F)(F)F)n1`, -0.981; as for `O=C(Oc1ccccc1)c1cccc(COC(=O)c2cnccn2)c1`, 0.387.
In turn, `COc1ccc(NC(=O)/C(Cl)=C(/Cl)S(=O)(=O)Cc2ccccc2)cn1` gave a z-score of -1.56.
In turn, `COc1ccc(C2CC(c3cccs3)=NN2c2ccc(C=O)cc2)cc1` (centres undefined) displayed a z-score of 0.0282.
As to `CC(=O)Nc1c([N+](=O)[O-])cc(C)c(Cl)c1[N+](=O)[O-]`, the z-score stood at 0.177.
As for `CCCCc1ccc(/C=C2\C(=O)c3ccccc3C(O)=C2C(=O)OCC)cc1`, the figure is -0.959.
Regarding `Cc1cc(C2=CC(C)(c3cc(C)oc3C)Nc3nc(C(F)(F)F)nn32)c(C)o1` (centres undefined), the z-score came out at 0.429.
As for `O=C(NCCC1=CCCCC1)c1coc(=O)c(Br)c1`, the figure is 0.552; as for `Cc1cc(C)n(C(C[N+](=O)[O-])c2ccc(Cl)cc2)n1` (centres undefined), 0.342; as for `CC1=NN(c2cccc(C(=O)O)c2)C(=O)/C1=C\C=C/c1ccccc1`, 0.584.
As for `O=S1(=O)CCC(NC(=S)SCCOc2ccccc2)C1` (centres undefined), the figure is -0.216.
The same measure for `Cc1ccc(O)c(NC(=O)c2cc([N+](=O)[O-])ccc2Cl)c1`: 0.644; for `Cn1c(=O)c(Nc2ccc(Cl)cc2)c2c3c(cccc31)C(=O)c1ccccc1-2`: 0.793.
`O=C(Cc1ccccc1)Nc1cccc(N2C(=O)C=CC2=O)c1` displayed a z-score of -1.81.
`COC(=O)c1cc(=O)n(CCc2ccccc2F)c(=Nc2ccc(F)c(Cl)c2)s1`: the z-score was -0.281.
As for `O=c1oc2c3c4c(cc2c(C(F)(F)F)c1CCN1CCOCC1)CCCN4CCC3`, the figure is 0.0811; as for `CCN1/C(=C/C=C/c2oc3ccc4ccccc4c3[n+]2CC)Oc2ccc3ccccc3c21`, 0.393; as for `Cc1ccc(NC(=O)CN(C)C(=O)Cn2ncc(Cl)c(Cl)c2=O)cc1`, 0.281.
Take `Cc1ccc(C2C3CSCC=C3C(C#N)=C(N)C2(C#N)C#N)cc1` (centres undefined): the z-score is -0.64.
As for `O=C(NC(=S)Nc1nc2c(s1)CSc1ccccc1-2)c1ccccc1`, the figure is 0.35; as for `C=C(CC)C(=O)c1ccc(OCC(=O)O)c(Cl)c1Cl`, 0.838; as for `CS(=O)(=O)N1N=C(c2ccccc2)CC1c1ccc2c(c1)OCO2` (centres undefined), 0.758.
In turn, `CCOC(=O)C1(CCCc2ccccc2)CCN(C(=O)C2=C(C)OCCO2)CC1` showed a z-score of -0.0873.
The same measure for `COc1cc(C(=O)Sc2ccc(C)cc2)cc(OC)c1OC`: 0.0657; for `Cc1ccnc(SCc2cc(=O)c(OC(=O)c3cc([N+](=O)[O-])ccc3Cl)co2)n1`: 0.238.
As for `CCn1c(Cl)c(C=O)s/c1=N\S(=O)(=O)c1ccccc1`, the figure is 0.122; as for `CCCCN1C(=O)/C(=C/C=C2\Oc3ccccc3N2CC)SC1=S`, 0.53; as for `CC(C)(C)NC(=S)N/N=C\c1ccc(-c2ccc([N+](=O)[O-])cc2)o1`, 0.227.
The same measure for `CC1(C)CC(=O)/C(=C\c2cccc([N+](=O)[O-])c2)C(C)(C)N1`: 0.583.
`Cc1cccc(Cn2ncc(Cl)c(Cl)c2=O)c1` registered a z-score of -0.117.
`COc1cccc(-n2nc(C#N)c(Cl)cc2=O)c1` returned a z-score of 0.911.
As for `COc1cc(/C=C(/C(=O)c2cccs2)c2nc3ccccc3[nH]2)cc(OC)c1O`, the figure is 0.676; as for `CCOC(=O)C1=C(C)OC(N)=C(C#N)C1c1cncc(-c2ccc(F)cc2)c1` (centres undefined), 0.144; as for `O=C(/C=C/c1cccc([N+](=O)[O-])c1)NC(=S)Nc1ccccc1C(=O)O`, 0.0618.
As for `CCOC(=O)C1C(=O)C=C(/C=C/c2ccc(N(C)C)cc2)CC1c1ccccc1` (centres undefined), the figure is -0.158.
With `CC(=O)n1cc(N(C(=O)CCl)c2ccc(C)cc2)c2ccccc21`, the z-score was -0.712.
As for `O=C(/C=C/c1ccc(Cl)cc1)c1cccnc1`, the figure is 0.28; as for `CCCc1cc(-n2ccnc2)n2c(nc3ccccc32)c1C#N`, 0.129.
Take `O=C(/C=C/C=C/c1ccccc1)c1ccco1`: the z-score is -0.146.
The same measure for `CCOC(=O)/C(=C\c1cccc(O)c1)c1nc2sc(C)c(C)c2c(=O)[nH]1`: 0.879; for `COC(CN(C(=O)CCl)C(C(=O)NC1CCCCC1)c1ccc(Cl)cc1)OC` (centres undefined): 0.272; for `COc1ccccc1N1C(=O)CC(Sc2n[nH]c(-c3cccc(C)c3)n2)C1=O` (centres undefined): 0.538.
`C=CCSC(=C(C#N)C#N)c1cc2c([nH]1)CCCC2` showed a z-score of -0.089.
In the case of `Nc1cccc2c1C(=O)N(C(=O)/C=C/c1ccc(F)cc1)C2=O`, the z-score turned out to be 0.336.
`CC(=O)OCCNc1cc(SCc2ccco2)c2nonc2c1[N+](=O)[O-]` yielded a z-score of 0.0784.
